No constants are given. Whether binding was seen depends on the method and setting. Some entries that bind do so weakly or less than the wild type.
molecular target: retinoblastoma binding protein 4 (RBBp4) (UniProt Q09028); test: fluorescence polarization competition

By UniProt entry, the sequences of proteins in these tests, tags left out.
UniProt Q09028: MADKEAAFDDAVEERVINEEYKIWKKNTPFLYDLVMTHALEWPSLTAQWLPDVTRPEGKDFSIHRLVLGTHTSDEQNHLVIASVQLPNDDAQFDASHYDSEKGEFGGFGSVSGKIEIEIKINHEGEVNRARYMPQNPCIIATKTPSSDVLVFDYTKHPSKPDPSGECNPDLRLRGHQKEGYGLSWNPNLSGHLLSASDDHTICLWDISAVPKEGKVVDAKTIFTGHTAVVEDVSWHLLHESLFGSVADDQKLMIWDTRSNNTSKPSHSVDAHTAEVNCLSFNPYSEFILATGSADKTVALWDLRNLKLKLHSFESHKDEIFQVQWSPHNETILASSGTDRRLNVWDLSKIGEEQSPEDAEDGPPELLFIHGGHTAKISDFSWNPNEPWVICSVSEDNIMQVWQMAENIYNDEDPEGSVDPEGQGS

binding, binds:
SRRKQAKPQHI (N-terminal acetyl (Ac-), C-terminal amide (-NH2)) [Peptide 5 (Ac-…-NH2)]
MSRRKQAKPQH (N-terminal acetyl (Ac-), C-terminal amide (-NH2)) [Peptide 2 (Ac-…-NH2)]
MSRRKQAKPQ (N-terminal acetyl (Ac-), C-terminal amide (-NH2)) [Peptide 3 (Ac-…-NH2)]
MSRRKQAKP (N-terminal acetyl (Ac-), C-terminal amide (-NH2)) [Peptide 4 (Ac-…-NH2)]
RRKAAKPQHI (N-terminal acetyl (Ac-), C-terminal amide (-NH2)) [Peptide 11 (Ac-…-NH2)]
RRKQAAPQHI (N-terminal acetyl (Ac-), C-terminal amide (-NH2)) [Peptide 12 (Ac-…-NH2)]
RRKQAKAQHI (N-terminal acetyl (Ac-), C-terminal amide (-NH2)) [Peptide 13 (Ac-…-NH2)]
RRKQAKPAHI (N-terminal acetyl (Ac-), C-terminal amide (-NH2)) [Peptide 14 (Ac-…-NH2)]
RRKQAKPQAI (N-terminal acetyl (Ac-), C-terminal amide (-NH2)) [Peptide 15 (Ac-…-NH2)]
RRKQAKPQHA (N-terminal acetyl (Ac-), C-terminal amide (-NH2)) [Peptide 16 (Ac-…-NH2)]
RRKLAKPQHI (N-terminal acetyl (Ac-), C-terminal amide (-NH2)) [Peptide 23 (Ac-…-NH2)]
RRKFAKPQHI (N-terminal acetyl (Ac-), C-terminal amide (-NH2)) [Peptide 24 (Ac-…-NH2)]
RRKQAKFQHI (N-terminal acetyl (Ac-), C-terminal amide (-NH2)) [Peptide 34 (Ac-…-NH2)]

molecular target: retinoblastoma binding protein 4 (RBBp4) (UniProt Q09028); test: SPR sensorgram (FIG. 1B)

binding, binds:
MSRRKQAKPQHI [WT SALL4 peptide (1-12 aa), …]

molecular target: retinoblastoma binding protein 4 (RBBp4) (UniProt Q09028); test: isothermal titration calorimetry

binding, binds:
MSRRKQAKPQHI [WT SALL4 peptide (1-12 aa), …]
